Experimental data reported in PubChem BioAssay AID1487 (National Center for Advancing Translational Sciences (NCATS), 2009).
This is one part of the list. Further columns of the screen follow, without active or inactive calls. Compounds called inactive in the main read-out are mostly missing here. Words in brackets tell the shape of the fitted curve; partial curves, single points and poor fits give uncertain potencies.

Experiment: qHTS Assay for Modulators of Lamin A Splicing
Details: HeLa LMNA splicing GFP/RFP minigene ratio, 48 h
In short: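 Read-out is the ratio of GFP to DsRed2 object intensity, acquired by 488 nm laser-scanning cytometry on HeLa lamin A-EGFP minigene reporter cells. Compound incubation 48 hrs at 37 °C in Opti-MEM with 2% FBS; DMSO 0.5% final.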

[1] = measured here: GFP splicing reporter channel
[2] = measured here: RFP viability control channel

| Structure (SMILES) | AC50 [1] | AC50 [2] |
| --- | --- | --- |
| O=c1cc(CSc2nnc(-c3cccs3)n2Cc2ccccc2)nc2sc3ccccc3n12 | 0.178 µM [rising, full curve, poor fit] | 0.631 µM [rising, full curve] |
| CCc1ccc(Nc2ccc(C(N)=O)cc2[N+](=O)[O-])cc1 | 35.5 µM [rising, single point] | 22.4 µM [rising, single point] |
| CC1(C)Oc2ccc3ccc(=O)oc3c2-c2cn[nH]c21 |  | 31.6 µM [rising, single point] |
| O=C(Nc1nc(-c2cccnc2)cs1)c1ccc(S(=O)(=O)N2CCOCC2)cc1 | 5.62 µM [rising, full curve, poor fit] | 10 µM [rising, partial curve] |
| COc1ccc2ccccc2c1C1CC(=O)N2CN(Cc3ccco3)CSC2=C1C#N (stereo unspecified) | 35.5 µM [rising, single point] |  |
| O=C(O)c1cc(=O)c2ccc(Cl)cc2[nH]1 | 0.00398 µM [falling, full curve, poor fit] | 0.00178 µM [falling, full curve, poor fit] |
| O=C(NCCSc1c[nH]c2ccccc12)c1ccc(Br)o1 |  | 35.5 µM [rising, single point] |
| C=CCN(C(=O)CSc1nc2[nH]ncc2c(=O)n1-c1ccccc1OC)c1ccccc1 |  | 35.5 µM [rising, single point] |
| O=C(Cn1nc(C(F)(F)F)c2c1CCCC2)Nc1cccc(Cl)c1 | 0.00316 µM [rising, full curve, poor fit] | 28.2 µM [rising, partial curve, poor fit] |
| C=CCc1cc(C=O)cc(OC)c1OCc1c(Cl)cccc1Cl | 0.0251 µM [falling, partial curve] |  |
| FC(F)(F)c1cccc(N2CCN(c3ncnc4c3nc3n4CCCC3)CC2)c1 | 0.0501 µM [falling, full curve, poor fit] |  |
| CCN(CCCNC(=O)COc1cc(=O)n(CC)c2ccccc12)Cc1ccccc1 |  | 11.2 µM [rising, partial curve] |
| Cc1cc(C)c(COc2ccc(/C=N/n3c(C)n[nH]c3=S)cc2)c(C)c1 | 35.5 µM [rising, single point] | 35.5 µM [rising, single point] |
| Cc1ccc(Cc2nc3ccccc3nc2SCC(=O)N2CCC(C)CC2)cc1 | 0.316 µM [rising, full curve] | 17.8 µM [rising, partial curve, poor fit] |
| COc1cccc(C(=O)N(CN2CCCC2=O)c2ccccc2OC)c1 | 5.01 µM [rising, partial curve] | 7.08 µM [rising, partial curve] |
| COc1ccc(F)cc1CN1CCN(c2cc(C)nc3c4c(C)cc(C)nc4nn23)CC1 |  | 14.1 µM [rising, single point] |
| COc1ccc(N2CCN(C(=O)CN(c3ccc(Br)cc3)S(C)(=O)=O)CC2)cc1 | 12.6 µM [rising, partial curve] | 22.4 µM [rising, single point] |
| Cc1cccc(N(CC(N)=O)C2SC(=O)NC2=O)c1 (stereo unspecified) | 11.2 µM [falling, partial curve, poor fit] |  |
| CCCCCCCCC(=O)NNC(=O)c1c(O)c2ccccc2n(CC)c1=O |  | 7.08 µM [rising, partial curve] |
| Cc1ccc(NC(=O)NC(=S)NC(=O)c2ccccc2)cc1 |  | 22.4 µM [rising, single point] |
| CCC1Sc2ccccc2N(CC(=O)NCc2ccc(C)cc2)C1=O (stereo unspecified) | 3.55 µM [rising, partial curve, poor fit] |  |
| Cc1ccc(S(=O)(=O)N2CCN(C(=O)CCC(=O)NCCc3ccc(S(N)(=O)=O)cc3)CC2)c(C)c1 | 0.00316 µM [falling, full curve, poor fit] | 0.00708 µM [falling, full curve] |
| COC(=O)c1ccc(C(=O)OC)c(NC(=S)N2CC(C)CC(C)C2)c1 (stereo unspecified) |  | 3.98 µM [falling, partial curve] |
| CN(CCOc1ccc(CC2SC(=O)NC2=O)cc1)c1ccccn1 (stereo unspecified) | 0.00794 µM [falling, full curve] |  |
| COc1ccc(C(=O)Nc2oc(-c3ccccc3)c(-c3ccccc3)c2C#N)cc1 |  | 15.8 µM [falling, single point] |
| COc1ccc(N2CCN(C(CNS(=O)(=O)c3ccc(OC)c(C)c3)c3ccco3)CC2)cc1 (stereo unspecified) |  | 0.00316 µM [falling, full curve, poor fit] |

| Structure (SMILES) | AC50 [1] | AC50 [2] |
| --- | --- | --- |
| CC(=O)Nc1ccc(NC(=O)c2ccccc2S(=O)(=O)c2ccccc2[N+](=O)[O-])cc1 |  | 0.178 µM [rising, full curve, poor fit] |
| CN(Cc1ccccc1)C(=O)c1oc(=O)c2ccccc2c1-c1ccccc1 | 35.5 µM [rising, single point] | 35.5 µM [rising, single point] |
| Cc1cc(C)c2cc(CN(CCO)C(=O)Nc3ccc(F)cc3)c(=O)[nH]c2c1 | 11.2 µM [rising, single point] |  |
| COc1ccc(-c2noc(CCC(=O)O)n2)cc1 | 6.31 µM [falling, single point] | 6.31 µM [falling, single point] |
| COc1ccc(C(=O)CSc2nnc(Cn3cnc4ccccc43)o2)cc1 | 5.01 µM [rising, partial curve, poor fit] | 5.62 µM [rising, full curve] |
| Cc1cc(S(=O)(=O)N(Cc2ccc(C(C)C)cc2)CC2CCCO2)ccc1-n1cnnn1 (stereo unspecified) |  | 15.8 µM [rising, partial curve] |
| O=c1c(C=NCc2ccccc2)c(NCc2ccccc2)nc2ccccn12 |  | 15.8 µM [falling, partial curve] |
| CCCCc1ccc(S(=O)(=O)NCCc2ccncc2)cc1 |  | 14.1 µM [rising, partial curve] |
| CCCS(=O)(=O)c1nc(S(=O)(=O)c2ccc(C)cc2)c(NCc2ccc3c(c2)OCO3)s1 | 14.1 µM [falling, partial curve] | 0.631 µM [falling, full curve, poor fit] |
| Nc1cc(-c2ccncc2)c[nH]c1=O | 0.178 µM [falling, full curve] | 0.316 µM [falling, full curve, poor fit] |
| O=c1c2ccccc2nc2n1C(CSCc1ccccc1)CS2 (stereo unspecified) | 7.08 µM [rising, full curve, poor fit] | 11.2 µM [rising, partial curve] |
| CC(C)c1ccc(C(O)c2cnc(C(C)C)n2C)cc1 (stereo unspecified) |  | 22.4 µM [rising, single point] |
| c1ccc2c(c1)CCCc1cc(NCCN3CCOCC3)nnc1-2 | 0.000891 µM [falling, full curve, poor fit] | 0.000891 µM [falling, full curve, poor fit] |
| CCN(CC)S(=O)(=O)c1ccc(N2CCOCC2)c(NC(=O)c2ccccc2)c1 | 14.1 µM [rising, single point] | 17.8 µM [rising, partial curve] |
| CCOC(=O)c1ccc(N2NC(=O)/C(=C/c3ccc(OC(=O)c4ccco4)c(OC)c3)C2=O)cc1 | 35.5 µM [rising, partial curve] | 22.4 µM [rising, partial curve] |
| COc1ccc(C[C@@H]2c3cc(OC)c(OC)cc3CC[N@+]2(C)CCC(=O)OCCCCCOC(=O)CC[N@@+]2(C)CCc3cc(OC)c(OC)cc3[C@H]2Cc2ccc(OC)c(OC)c2)cc1OC | 0.1 µM [rising, full curve, poor fit] | 0.126 µM [rising, partial curve, poor fit] |
| NC(=O)CSc1nc(C23CC4CC(CC(C4)C2)C3)nc2ccccc12 | 20 µM [falling, partial curve, poor fit] | 25.1 µM [falling, single point] |
| CC(C)Cn1c(N)c(C(=O)COC(=O)c2ccc3c(c2)OCCO3)c(=O)n(C)c1=O | 31.6 µM [rising, single point] | 22.4 µM [rising, single point] |
| Cc1cc(Cl)ccc1OC(C)C(=O)Nc1ccccc1N1CCOCC1 (stereo unspecified) |  | 25.1 µM [rising, single point] |
| O=C(NN1C(=O)c2ccccc2C1=O)c1ccncc1 |  | 0.00501 µM [falling, full curve, poor fit] |
| O=C(Nc1cccc([N+](=O)[O-])c1)c1cc2ccccc2cc1O |  | 6.31 µM [rising, full curve, poor fit] |
| Fc1ccc2[nH]c3c(N4CCSCC4)ncnc3c2c1 |  | 2.51 µM [rising, full curve, poor fit] |
| O=C(NCCC1=CCCCC1)c1cccc2c1C(=O)N(C1CCCCC1)C2 | 28.2 µM [falling, partial curve] | 25.1 µM [falling, partial curve] |
| O=C1N/C(=N\N=C\c2cccnc2)SC1Cc1ccc(SC(F)F)cc1 (stereo unspecified) |  | 7.94 µM [rising, partial curve] |
| Cc1cn(C)c(CC(=O)Nc2cccc(C#N)c2)c1C(=O)O | 0.01 µM [falling, full curve, poor fit] | 0.0398 µM [falling, full curve] |
| CCC1(C(=O)c2ccccc2)C(c2ccc([N+](=O)[O-])cc2)C1(C(=O)OC)C(=O)OC (stereo unspecified) |  | 3.98 µM [rising, partial curve, poor fit] |

Single records (already shown).
Cc1cc(C)c2cc(CN(CCO)C(=O)Nc3ccc(F)cc3)c(=O)[nH]c2c1 is listed as AC50 [1]: 11.2 µM [rising, single point]
COC(=O)c1ccc(C(=O)OC)c(NC(=S)N2CC(C)CC(C)C2)c1 (stereo unspecified) is listed as AC50 [2]: 3.98 µM [falling, partial curve]
Cc1ccc(S(=O)(=O)N2CCN(C(=O)CCC(=O)NCCc3ccc(S(N)(=O)=O)cc3)CC2)c(C)c1 is listed as AC50 [1]: 0.00316 µM [falling, full curve, poor fit]; AC50 [2]: 0.00708 µM [falling, full curve]
